We go through one molecule from patent US20200223885A1.

In the experiment the target is monoclonal antibody (RITUXAN, manufactured by Zenyaku Kogyo Co., Ltd.). Nature of the experiment: affinity chromatography on the FcR9-immobilized gel column (FcR9 prepared with a cysteine tag as in Examples 3 to 5, Comparative Example 1); equilibration 20 mM acetate, 50 mM NaCl, pH 5.0; elution by pH gradient to 10 mM glycine-HCl pH 3.0; 0.6 mL/min; A280.

These are yes or no findings as the source states them, for the method shown. Some entries that bind do so weakly or less than the wild type. Where a sequence is shown, tags or fusion partners need not be part of it.

B1: Fc-binding protein FcR9 (human FcγRIIIa amino acid substitution product) (receptor)
chain: KIEEAMGMRTEDLPKAEVILEPQWNRVLEKDSVTLKCRGAYSPEDNSTQWFHNESLISSQASSYLIDAATVDDSGEYRCQTSLSTLSDPVQLEVHIGWLLLQAPRWEFKEGDPIHLRCHSWKNTALHKVTYLQNGKGRKYFHHNSDFYIPKATLKDSGSYSCRGLVGSKNVSSETVNITITQGGHHHHHH
As to B1, the binding entry is given as “binds”.
